{"source": "patent US11644474B2", "about": "“Use of macimorelin in assessing growth hormone deficiency in children” (Æterna Zentaris GmbH, priority 2020, dated 2023)", "system": "GH secretion", "experiment": "Diagnostic outcome of macimorelin GHST vs two standard GHSTs and investigator's assessment", "type": "in vivo, human (paediatric subjects with suspected GHD)", "settings": "C3, 1 mg/kg", "description": "The main features of Study P01 are summarized as follows: • Sequential cohorts of trial participants received macimorelin at ascending single oral doses: 0.25 mg/kg body weight in Cohort 1 (C1), 0.5 mg/kg body weight in Cohort 2 (C2), and 1 mg/kg body weight in Cohort 3 (C3). • For determination of macimorelin PK/PD: blood sampling at pre-dose, then 15, 30, 45, 60, 90, 120, and 360 minutes after the administration of macimorelin. • Two standard GHSTs (sGHSTs) had to be performed in a patient according to local practice. The related sGHST agents were considered as ‘background’ and not as IMPs. (Accepted test agents: insulin (insulin tolerance test or ITT), arginine, arginine/growth hormone releasing hormone (GHRH), clonidine, glucagon, L-dopa). Results\nPeak GH values by GHD diagnosis were compared based on GHST results and investigator's assessment. Diagnostic characteristics of GH values (i.e., sensitivity, specificity, and Youden indices (non-weighted, weighted)) tested as cut-off points were listed with the most solid expression of diagnostic characteristics to be noted for C1 at a peak GH of 10.03 ng/mL, for C2 at a peak GH of 10.43 ng/mL, and for C3 at 17.13 ng/mL.\nThe investigator's assessment is based on local diagnostic standard practice. The macimorelin GHST was tested against a cut-off point calculated from the individual peak GH values.", "key": {"[1]": {"settings": "cut-off approximately 17 ng/mL GH"}}, "data": [{"smiles": "CC(C)(N)C(=O)N[C@H](Cc1c[nH]c2ccccc12)C(=O)N[C@H](Cc1c[nH]c2ccccc12)NC=O", "note": "[macimorelin]", "values": [{"measurement": "ROC AUC of macimorelin GHST", "value": 0.933}, {"measurement": "agreement of single macimorelin GHST with combination of two sGHSTs and with PI assessment", "value": "7 of 8"}, {"measurement": "Youden-index of macimorelin GHST", "setting": "[1]", "value": 0.80}, {"measurement": "sensitivity of macimorelin GHST", "setting": "[1]", "value": 1.00}, {"measurement": "specificity of macimorelin GHST", "setting": "[1]", "value": 0.80}]}]}
